Paper doi:10.1101/2025.10.22.683978
No constants are given. Whether binding was seen depends on the method and setting. Binding seen in cells or lysates may run through a third protein. Some binding calls cover weakened binding; strength is not graded here. Tags and fused reporters may be left off the sequences shown.

Chains of the proteins cited; added tags and fusions are not shown.
UniProt P14859: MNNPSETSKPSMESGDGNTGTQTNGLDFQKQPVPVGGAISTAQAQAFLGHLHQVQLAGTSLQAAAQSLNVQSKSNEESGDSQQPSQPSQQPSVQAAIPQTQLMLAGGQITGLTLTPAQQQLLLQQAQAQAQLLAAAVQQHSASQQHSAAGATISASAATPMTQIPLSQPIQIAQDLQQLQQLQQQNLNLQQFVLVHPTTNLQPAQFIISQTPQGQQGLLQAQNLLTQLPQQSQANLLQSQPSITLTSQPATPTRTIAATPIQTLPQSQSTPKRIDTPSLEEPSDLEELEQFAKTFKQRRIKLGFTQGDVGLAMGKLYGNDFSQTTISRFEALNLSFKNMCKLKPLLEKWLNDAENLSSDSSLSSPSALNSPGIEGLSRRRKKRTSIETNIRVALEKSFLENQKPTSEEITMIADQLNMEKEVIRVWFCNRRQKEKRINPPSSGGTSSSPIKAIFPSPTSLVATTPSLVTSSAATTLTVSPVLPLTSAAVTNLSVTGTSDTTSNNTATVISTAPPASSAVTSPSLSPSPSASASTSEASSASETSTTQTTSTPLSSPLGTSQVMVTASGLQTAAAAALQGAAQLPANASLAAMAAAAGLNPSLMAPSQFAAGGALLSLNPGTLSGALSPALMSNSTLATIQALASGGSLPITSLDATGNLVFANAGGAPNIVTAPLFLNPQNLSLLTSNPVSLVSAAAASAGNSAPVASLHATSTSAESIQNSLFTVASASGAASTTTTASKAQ

Biological target: full-length human Oct1 with N-terminal nLuc (NanoBRET donor) (human) (UniProt P14859)
Assay: FRET or BRET

B1: full-length human OCA-B with a C-terminal HaloTag (NanoBRET acceptor) (protein, UniProt Q16633 1-256)
chain: MLWQKPTAPEQAPAPARPYQGVRVKEPVKELLRRKRGHASSGAAPAPTAVVLPHQPLATYTTVGPSCLDMEGSVSAVTEEAALCAGWLSQPTPATLQPLAPWTPYTEYVPHEAVSCPYSADMYVQPVCPSYTVVGPSSVLTYASPPLITNVTTRSSATPAVGPPLEGPEHQAPLTYFPWPQPLSTLPTSTLQYQPPAPALPGPQFVQLPISIPEPVLQDMEDPRRAASSLTIDKLLLEEEDSDAYALNHTLSVEGF
Question: Which binding does the source give for B1 here?
Answer: binds
